In patent US20230296555A1 one finds binding data, which are given here for 1 molecule.

No constants are given. Whether binding was seen depends on the method and setting. Some results given as binding are weak or reduced against the parent protein; the word gives no strength.

The target in this experiment is T1, Tau peptide (SEQ ID NO:6).
T1 sequence (peptide): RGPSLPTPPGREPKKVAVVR
Kind of experiment: EGFET biochip, antibody captured via biotin/avidin, Tau peptide added at various concentrations, electrical signal.

B1: biotinylated anti-Tau antibody including Tau-217-123 VL and Tau-217-123 VH (antibody, V domains shown)
VH: QVQLQQPGSELVRPGASVKLSCKASGYTFTSYWMHWVKQRHGQGLEWIGNIYPGSGSTNYDEKFKSKGTLTVDTSSSTAYMHLSSLTSEDSAVYYCTTGTAYWGQGTLVTVSA
VL: DIVMTQSPSSLSASLGERVSLTCRASQEISGYLSWLQQKPDGTIKRLIYAASTLDSGVPKRFSGSRSGSDYSLTISSLESEDFADYYCLQYASYPWTFGGGTKLEIKR
With B1, the binding result was “binds”.
